# Screening data, single-dose tests

The values are deposited in ChEMBL (CHEMBL3988442, “University of Dundee, Small-Polar-MMV Screening Library” (2021)).

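Whole-parasite assay of Trypanosoma brucei over 72 hours; the read-out is not stated. Tested at 30 µM. Higher reads as stronger inhibition (inferred: compounds with an IC50 in retests scored well above the rest). Values scatter widely below zero; nearly all retest evidence comes from the higher of the two concentrations used. About 64,000 compounds were tested under these conditions; 1.5% (about 940) showed 50% or more at least once.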

Results are given as percent effect.
The record does not define 0% and 100%; most values in the screen are far below 50% and negative numbers occur (in some assays of this library far below -100).
The compounds are a random part of those screened.

CCC(NC(=O)C1CC1)c1ccccc1OCC(=O)N1CCCC1 (configuration not stated) read 2.27%. Result for Cn1cnnc1SCC(=O)NC1CC(=O)N(CCc2cccc(Cl)c2)C1 (configuration not stated) was -25.79%. With CN1CC[C@H](N(Cc2ccccc2)CC2CC2)C[C@H](O)C1 the screen gave 2.753%. With COCCN1CCC2(COCc3cnc(-c4ccccc4)nc32)C1.O=C(O)C(F)(F)F (configuration not stated) the screen gave -55.77%. FC1(F)CCN(Cc2cccnc2)CC12CCN(c1cnccn1)C2.O=C(O)C(F)(F)F.O=C(O)C(F)(F)F.O=C(O)C(F)(F)F (configuration not stated) read -8.346%. With Cc1cc(=O)n(C)cc1NC(=O)Cc1cc(F)ccc1F the screen gave -4.622%. With [H][C@]12CCN(C(=O)NCc3ccccc3C)CC[C@@]1([H])S(=O)(=O)N(C)C2 the screen gave -10.72%.

For COc1cccc(CNCc2c(C(C)C)nn(C)c2N(C)C)c1OC the result was 101.8%. For Cc1c(C(=O)N2CCC(O)(CN(C)C)C2)c2cc(O)ccc2n1C (configuration not stated) the result was -235.1%. For Cc1nc(C)c(C)c(N2CCC3(CCOC3)C2)n1 (configuration not stated) the result was -74.39%. With CN(CC1(O)CCCN(c2ccccn2)C1)C(=O)Cc1ccsc1 (configuration not stated) the screen gave 15.3%. O=S(=O)(NCc1ccccc1Cn1cncn1)N1CCCCCC1 gave 5.591%. Cc1cc(C)n(C2CCCN(C(=O)CCNS(C)(=O)=O)C2)n1 (configuration not stated) read -6.111%. Result for COCCOc1nc(-c2ccccc2Cl)no1 was -16.44%.

For Cc1ccc(F)c(NCc2ccc(C(=O)N(C)C)[nH]2)c1 the result was 9.712%. CCn1c(SCC(=O)N2CCOCC2)nc2cc(C)[nH]c2c1=O read -63.92%. With NC(=O)CCOc1nc(-c2ccccc2Cl)no1 the screen gave -67.05%. With Cc1cc(CN(C)S(=O)(=O)N2CCCC2c2ccc(C)o2)no1 (configuration not stated) the screen gave -31.71%. Result for Cn1ncc2c(NCCOc3ccc(F)cc3)nc(C3CCCC3)nc21 was -31.52%. CCn1ncc(-c2cc(C(F)(F)F)nc(N3CCC(N)CC3)n2)c1C read 100.2%. With Cn1cc(CN2CCC3(CCC(C(=O)NCC4CC4)C3)CC2)cn1.O=C(O)C(F)(F)F (configuration not stated) the screen gave -8.66%.

Result for Cc1nc(C)c(CN2CCOC[C@H](Oc3ccc(S(C)(=O)=O)cc3)C2)s1 was -4.752%. With Cc1ccc(-n2c(C)nnc2SCC(O)COCc2ccco2)cc1 (configuration not stated) the screen gave 100%. With COC(=O)CCN1CCC(C(=O)c2cc(F)ccc2F)CC1 the screen gave -3.211%. For COc1ncccc1CNC(=O)CN1CCCCCC1=O the result was -29.98%. For O=C(Cc1ccsc1)NCC1Cn2nnc(-c3ccoc3)c2CO1 (configuration not stated) the result was -25.25%. For CC(CC(=O)Nc1ncn(CC(=O)NCc2ccccc2)n1)C1CC1 (configuration not stated) the result was -16.67%. CC(C)c1noc(CCCC(=O)N2CCN(S(C)(=O)=O)CC2)n1 gave -21.94%.

CN(Cc1nccn1CC(F)(F)F)C(=O)c1ccc(F)c(F)c1 gave 13.52%. For CCN1CCC2(CCC1=O)CN(C1CCOCC1)CCN2C (configuration not stated) the result was 28.35%. CC(C)(C)NC(=O)COc1ccc(CNCCOc2ccccn2)cc1 gave -0.342%. CN(Cc1cccnc1)Cc1cn2c(n1)CN(C1CCOCC1)CC2 read -35.32%. CC(C)(C)c1cn2nc(N3CCCC3Cn3cccn3)sc2n1 (configuration not stated) gave 12.03%. For CC(C)c1nc(CN2CCN(C(=O)OC(C)(C)C)C(C)C2)no1 (configuration not stated) the result was -45.34%. Cc1oncc1C(=O)NCc1cc(=O)n2c(n1)CN(C(C)C)CCC2.O=C(O)C(F)(F)F gave 22.09%.

CCc1ccc(NC(=O)Nc2c(O)oc3ccccc3c2=O)cc1 read 3.695%. For COCCN(C)C(=O)c1ccc2onc(-c3coc(C)n3)c2c1 the result was -5.733%. For CC(=O)N1CCOCC2(C1)CN(S(C)(=O)=O)CCO2 (configuration not stated) the result was -56.79%. For CCc1nc(C2CCCN2CC(=O)Nc2c(C)nn(C)c2C)no1 (configuration not stated) the result was -51.63%. With CC(=O)N1CCC(C(=O)c2cc(C)cnc2N)CC1 the screen gave 19.29%. CC(C)(C#N)CCCS(=O)(=O)c1nccn1-c1cccc(F)c1 read -13.81%. With Cc1sc(N)nc1-c1ccc(Cl)cc1 the screen gave -2.469%.

Result for Cc1nn(C)c2ncc(NC(=O)N3CCCCCC3)cc12 was -31.65%. Result for CN(Cc1ccc(C#N)cc1)C(=O)c1ccn(C)c(=O)c1 was -91.18%. Result for O=C(CCS(=O)(=O)c1ccccc1)N1CCCC(n2cccn2)C1 (configuration not stated) was 8.458%. For CS(=O)(=O)CCN1C[C@H](NC(=O)c2cnc(O)cn2)[C@@H](C2CC2)C1 the result was -54.39%. C[S+]([O-])c1nncn1CC(=O)c1ccc2c(c1)CCC2 (configuration not stated) gave -51.35%.

Some entries from above, unchanged:

Compound	Percent Effect
Cc1cc(=O)n(C)cc1NC(=O)Cc1cc(F)ccc1F	-4.622
CCc1nc(C2CCCN2CC(=O)Nc2c(C)nn(C)c2C)no1 (configuration not stated)	-51.63
[H][C@]12CCN(C(=O)NCc3ccccc3C)CC[C@@]1([H])S(=O)(=O)N(C)C2	-10.72
Cc1nc(C)c(CN2CCOC[C@H](Oc3ccc(S(C)(=O)=O)cc3)C2)s1	-4.752
CCN1CCC2(CCC1=O)CN(C1CCOCC1)CCN2C (configuration not stated)	28.35